Source: patent US20220145323

Tests used:
TnpA (IS608 transposase) [1] = molecular target: T1, TnpA (IS608 transposase) (UniProt Q933Z0); assay: structure; conditions: TnpA/LE29/T6' ternary structure; purified recombinant protein
T1 sequence (looked up, limits assumed): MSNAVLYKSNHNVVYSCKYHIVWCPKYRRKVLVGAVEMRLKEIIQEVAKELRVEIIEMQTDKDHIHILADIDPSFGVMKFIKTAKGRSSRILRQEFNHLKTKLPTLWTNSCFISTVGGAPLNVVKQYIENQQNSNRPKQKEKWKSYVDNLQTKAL

TnpA (IS608 transposase) [2] = molecular target: T1, TnpA (IS608 transposase); assay: enzyme reaction in vitro; conditions: purified recombinant protein, label: 5'-32P
[3] = no integration product even with 10-fold excess
[4] = integration greatly enhanced by extended 8 bp pairing

AAAGCCCCTAGCTTTTAGCTATGGGGATA / ATTACC [LE29 ; T6']
binding result (TnpA (IS608 transposase) [1]): binds

CTCATGCTTTAGCTAGAATCCCCTAGCTTTAGCTATGGGGAGTATGTCAACAAAACTAACGCCTTAAACCCCCTAGCTTTTAGCTATGGGGTTCGCCCGGAAAACGCCTT / CCGATGATGAGGAACCCCCCCCTAGAGCTTTTATTAGTGATGATGAGGAACCCCCCCCTAGTGATGA [J4 junction ; T4r]
activity on this sequence (TnpA (IS608 transposase) [2]; [3]): not active

CTCATGCTTTAGCTAGAATCCCCTAGCTTTAGCTATGGGGAGTATGTCAACAAAACTAACGCCTTAAACCCCCTAGCTTTTAGCTATGGGGTTCGCCCGGAAAACGCCTT / CCGATGATGAGGAACCCCCCCCTCCGGGCGTCGTTAGTGATGATGAGGAACCCCCCCCTAGTGATGATGAGGATT [J4 junction ; T4c]
activity on this sequence (TnpA (IS608 transposase) [2]; [4]): active

CTCATGCTTTAGCTAGAATCCCCTAGCTTTAGCTATGGGGAGTATGTCAACAAAACTAACGCCTTAAAGCCCCTAGCTTTTAGCTATGGGGTTCGCCCGGAAAACGCCTT / CCGATGATGAGGAACCCCCCCCTCCGGGCGTCGTTACTGATGATGAGGAACCCCCCCCTAGTGATGATGAGGATT [J1 junction ; T1c]
activity on this sequence (TnpA (IS608 transposase) [2]; cleavage and strand transfer, 5 mM MgCl2, pH 7.5, 37 C, preferred over Tr and 20-fold scrambled targets): active

CTCATGCTTTAGCTAGAATCCCCTAGCTTTAGCTATGGGGAGTATGTCAACAAAACTAACGCCTTAAAGCCCCTAGCTTTTAGCTATGGGGTTCGCCCGGATGATTCCTT / CCGATGATGAGGAACCCAATCATCCGGGCGTCGTTACTGATGATGAGGAACCCCCCCCTAGTGATGATGAGGATT [J3 junction ; T3c_1]
activity on this sequence (TnpA (IS608 transposase) [2]; 13 bp complementarity, exclusive integration over T3c_2): active

CTCATGCTTTAGCTAGAATCCCCTAGCTTTAGCTATGGGGAGTATGTCAACAAAACTAACGCCTTAAAGCCCCTAGCTTTTAGCTATGGGGTTCGCCCGGATGATTCCTT / CCGATGATGAGGAACCCCCCCCTAGGGGCGTCGTTACTGATGATGAGGAACCCCCCCCTAGT [J3 junction ; T3c_2]
activity on this sequence (TnpA (IS608 transposase) [2]; 5 nt complementarity, not selected over Tr, outcompeted by T3c_1): less active

CTCATGCTTTAGCTAGAATCCCCTAGCTTTAGCTATGGGGAGTATGTCAACAAAACTAACGCCTTAAAGCCCCTAGCTTTTAGCTATGGGGTTGCCCGAACAAACGCCTT / CCGATGATGAGGAACCCCCCCCGTTCGGGCTGATTACTGATGATGAGGAACCCCCCCCTAGTGATGATGAGGATT [J2 junction ; T2c]
activity on this sequence (TnpA (IS608 transposase) [2]; efficient integration into complementary target, 5 mM MgCl2): active

CTCATGCTTTAGCTAGAATCCCCTAGCTTTAGCTATGGGGAGTATGTCAACAAAACTAACGCCTTCAAACCCCTAGCTTTTAGCTATGGGGTTCGCCCGGAAAACGCCTT / CCGATGATGAGGAACCCCCCCCTAGAGCTTTTATGATTGATGATGAGGAACCCCCCCCTAGTGATGA [J5 junction ; T5r]
activity on this sequence (TnpA (IS608 transposase) [2]; [3]): not active

CTCATGCTTTAGCTAGAATCCCCTAGCTTTAGCTATGGGGAGTATGTCAACAAAACTAACGCCTTCAAACCCCTAGCTTTTAGCTATGGGGTTCGCCCGGAAAACGCCTT / CCGATGATGAGGAACCCCCCCCTCCGGGCGTCGTGATTGATGATGAGGAACCCCCCCCTAGTGATGATGAGGATT [J5 junction ; T5c]
activity on this sequence (TnpA (IS608 transposase) [2]; [4]): active

For at least one entry, the source does not settle the construct or the ends of the probe. For part of these data: Negatives hold for the conditions tested. Where a protein sequence is shown, tags need not be part of it. For part of these data: A weaker result is weaker than the reference pair of the same experiment.
